{"source": "patent US20150275270A1", "about": "“COMPOSITIONS AND METHODS FOR THE ANALYSIS OF DEGRADED NUCLEIC ACIDS” (ALTHEADX, INC., priority 2005, published 2015)", "origin": "cited, not measured here", "tested_on": "catalase gene (CAT)", "details": "male rats, 200, 400 and 800 mg/kg/day for five days, UPM-PCR method", "note": "At least one structure is not confirmed: it was looked up by name or label, or the drawing left a doubt."}
{"smiles": "CCOC(=O)C(C)(C)Oc1ccc(Cl)cc1", "note": "[clofibrate]", "values": [{"measurement": "change in catalase gene (CAT) expression versus pooled control RNAs", "result": "virtually unchanged"}]}
